Data source: PubChem BioAssay AID602196 (INSERM, 2012)
This is a random part of about 23,000 deposited reagents. Of all reagents, 455 (2%) got an active call. 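Active includes both protection and sensitisation; some change values fall well beyond the stated -50 to +50 range.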 A number with no mark means an inactive call. The record does not give: the amount of reagent.

Test: 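Knock-downs that protect lung cancer cells from cisplatin or sensitise them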
Cell system: human A549 lung cancer cells
Reagent: siRNA pair against human genes
Duration: 48 h transfection before cisplatin; time from cisplatin to read-out not stated
Conditions: cisplatin at a dose killing half of control-siRNA cells; exact dose and duration not given
Measured: 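Shift in cisplatin death relative to control siRNA, from -50 (all cells die) to +50 (no cells die); siRNAs harmful on their own scored 0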
Reading the numbers: two-siRNA summed score (-2 to +2): higher = both siRNAs protect from cisplatin killing; -2 means both sensitise; mean protection from cisplatin (shift in death) and protection from cisplatin (shift in death), siRNA C and protection from cisplatin (shift in death), siRNA D: higher = protection from cisplatin killing
Active means: 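Each siRNA scores 0 if harmful alone by LDH or WST-1, otherwise +1 if it reduces and -1 if it increases cisplatin killing; a gene is active when both siRNAs agree (sum +2 or -2)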
Meaning of the calls: active = both siRNAs shift cisplatin killing the same way; inactive = no consistent shift, or siRNA harmful alone

Gene,two-siRNA summed score (-2 to +2),mean protection from cisplatin (shift in death) (%),"protection from cisplatin (shift in death), siRNA C (%)","protection from cisplatin (shift in death), siRNA D (%)"
ARL13B,0,-1.3,-1.6,-1.1
IFT46,0,4.5,13.1,-4
LOC94105,1,7.1,-1.9,16.2
SNURF,1,11.9,22,1.7
CABIN1,0,-13.5,-7.4,-19.6
LPCAT2,0,4,2,6.1
ANKRD26P1,0,7,7.9,6.2
LOC441127,0,10.7,15.5,6
OLIG1,0,11.7,9.1,14.3
SAC3D1,0,0,-1.1,1.1
LOC440487,0,26.6,24.9,28.3
LOC389659,0,12.9,15.9,10
C20orf96,-1,-3.9,-18.4,10.7
NOTCH1,0,-13.8,-15.5,-12
PCDHB9,0,2.1,5.3,-1
MCM3,0,10.2,21.3,-0.9
MPRIP,0,2.8,5.2,0.4
GPR61,0,-9.7,-8.2,-11.2
CCNL2,0,2.3,-6.9,11.5
PRDM16-DT,0,12.3,18.6,6
LOC441698 (retired record),1,12.8,6.9,18.7
LOC389269,0,11.5,15.3,7.7
TUBB4A,0,9.3,15.7,2.9
DCLK2,2 (active),19.2,10.6,27.8
LOC283953,0,18.5,26.7,10.2
CYP2C18,1,12.2,16.1,8.2
LOC389815,0,3.9,-1.4,9.2
KLHL20,0,0.2,5.4,-5
ABRA,0,-1.4,17.2,-20
RAB33A,0,-2,4.3,-8.2
CHRNB1,-1,-7.7,-13.4,-2
CDKN2C,0,5.7,8.7,2.7
FSCN1,0,18.8,10.3,27.3
SC5D,0,0.6,17,-15.7
RABGEF1,0,12.3,11.4,13.1
AMDHD2,0,-0.9,3.5,-5.3
MIRLET7BHG,0,6.5,-1.3,14.3
PCDHGA8,0,5.2,5.8,4.6
COX7A2,2 (active),15.1,22.1,8
LRR1,0,4.3,-2.7,11.3
GARRE1,0,6.5,7.5,5.5
LOC390254,1,16,28.2,3.8
H2BC12,0,3.4,6.4,0.5
OR2T27,-1,-1.6,-12.6,9.5
FBXO36,0,14.2,11.6,16.8
SLC27A5,0,8.8,13.2,4.4
LOC387907,0,11.5,25.4,-2.3
LINC02649,0,6.3,9.2,3.4
LOC441079,0,8.7,5.8,11.7
PKN1,0,-1.1,-0.7,-1.5
KLK11,0,-0.3,5.4,-6
PELI1,0,9.9,9,10.7
LASP1,-1,-17.8,-22.1,-13.6
PIP4K2B,0,-3,3.4,-9.4
TTC16,0,5.3,-14.5,25.1
TMEM245,1,6.1,-6.4,18.6
APLP2,-1,-11.3,-6.1,-16.6

Hits, of those listed so far:
Gene,two-siRNA summed score (-2 to +2),mean protection from cisplatin (shift in death) (%),"protection from cisplatin (shift in death), siRNA C (%)","protection from cisplatin (shift in death), siRNA D (%)"
DCLK2,2 (active),19.2,10.6,27.8
COX7A2,2 (active),15.1,22.1,8
